PubChem BioAssay AID1259285 – Sanger Institute, 2017
Shown is one part, drawn at random, of 794 reagents. In the full data, 20 (2.5%) are marked active. 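Calls rest on the drug-free arm alone and ignore synergy scores; viability ratios seem to be capped at 1.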 Further read-outs or replicates are left out here. Reagent sequences are not shown. The record does not give: the amount of reagent, the time to read-out.

Screen: 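Kinase knock-downs that reduce colorectal cancer cell viability or act with drugs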 (primary screen)
Cell system: human HCC56 colorectal cancer cells
Reagents: siRNA pool against human genes
Challenge: DMSO vehicle, or anchor drug BYL719 at 1 µM, cetuximab at 5 µg/ml, or trametinib at 10 nM
Measurement: 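Replicate-averaged viability relative to non-targeting siRNA, expressed as a robust z-score from controls, plus a synergy score for each of three anchor drugs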
Reading the numbers: viability robust z-score, no drug: higher = more viable cells, weaker knock-down effect
Call rule: 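Essential when the drug-free viability robust z-score falls below -3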
Meaning of the calls: active = essential without drug; inactive = no change without drug

gene | viability robust z-score, no drug | activity call
PIK3CG (GeneID 5294) | -0.325 | inactive
BTK (GeneID 695) | 0.458 | inactive
CSNK2A1 (GeneID 1457) | 0.458 | inactive
MPP1 (GeneID 4354) | 0.458 | inactive
STK31 (GeneID 56164) | 0.458 | inactive
ALPK3 (GeneID 57538) | 0.458 | inactive
CMPK1 (GeneID 51727) | 0.458 | inactive
AK3 (GeneID 50808) | 0.458 | inactive
SRPK1 (GeneID 6732) | -0.391 | inactive
AK5 (GeneID 26289) | 0.458 | inactive
CASP8 (GeneID 841) | 0.458 | inactive
NRK (GeneID 203447) | 0.171 | inactive
MAP2K6 (GeneID 5608) | 0.458 | inactive
PTEN (GeneID 5728) | 0.458 | inactive
PRKCB (GeneID 5579) | -0.621 | inactive
PIK3C2G (GeneID 5288) | -3.29 | active
FGFRL1 (GeneID 53834) | 0.458 | inactive
ITK (GeneID 3702) | 0.458 | inactive
CKM (GeneID 1158) | 0.237 | inactive
TRPM7 (GeneID 54822) | 0.458 | inactive
ABL1 (GeneID 25) | 0.458 | inactive
EFNA3 (GeneID 1944) | 0.458 | inactive
TAF1L (GeneID 138474) | 0.458 | inactive
PRKAB1 (GeneID 5564) | 0.458 | inactive
EPHB3 (GeneID 2049) | 0.458 | inactive
CSF1R (GeneID 1436) | -3.34 | active
PACSIN1 (GeneID 29993) | 0.458 | inactive
RIOK3 (GeneID 8780) | 0.458 | inactive
MAP3K4 (GeneID 4216) | 0.458 | inactive
BUB1 (GeneID 699) | 0.458 | inactive
GRK7 (GeneID 131890) | 0.458 | inactive
NRAS (GeneID 4893) | 0.458 | inactive
IP6K1 (GeneID 9807) | 0.458 | inactive
PDGFRL (GeneID 5157) | 0.458 | inactive
DYRK1A (GeneID 1859) | 0.42 | inactive
MYLK3 (GeneID 91807) | 0.458 | inactive
RPS6KA4 (GeneID 8986) | 0.458 | inactive
WNK1 (GeneID 65125) | 0.458 | inactive
BCR (GeneID 613) | -0.942 | inactive
TRIB1 (GeneID 10221) | 0.458 | inactive
TGFBR1 (GeneID 7046) | 0.458 | inactive
PAK3 (GeneID 5063) | 0.458 | inactive
ULK1 (GeneID 8408) | 0.458 | inactive
CAMK2B (GeneID 816) | -0.706 | inactive
CDKN1B (GeneID 1027) | 0.458 | inactive
PIP5K1C (GeneID 23396) | -0.141 | inactive
FBXW7 (GeneID 55294) | 0.458 | inactive
CPNE3 (GeneID 8895) | 0.458 | inactive
PRKAR1B (GeneID 5575) | -0.965 | inactive
JAK1 (GeneID 3716) | 0.458 | inactive

In a second layout: 4 of the entries above.
ABL1 (GeneID 25): viability robust z-score, no drug = 0.458; activity call = inactive
EFNA3 (GeneID 1944): viability robust z-score, no drug = 0.458; activity call = inactive
TAF1L (GeneID 138474): viability robust z-score, no drug = 0.458; activity call = inactive
PRKAB1 (GeneID 5564): viability robust z-score, no drug = 0.458; activity call = inactive
